Source: PubChem BioAssay AID330 (DTP/NCI, 2004)
The list shows only some results of the screen, not a fair sample: it gathers tests that were run many times, whatever their T/C, doses with no T/C, and many T/C values between a quarter and a half above the control. Further doses and runs are listed elsewhere. T/C: endpoint of the treated group in % of that of the vehicle group. Some doses have a count of surviving animals in place of a T/C: the source files T/C as zero there, which appears to mark a toxic dose or a test without result, not a measured value. Some doses without a T/C left all or most animals alive at the check, yet need not have been tolerated: the source hardly ever lists a survival T/C far under the control, and the zero likely stands for such cases as well. Survivors were counted at the toxicity check, usually on the fifth day, unless a day is given; later deaths do not show. Schedule codes are those of the source, taken here to give the interval after Q, in days (D) or hours (H), and the number of doses after X. Some doses were run more than once; the results are listed from low to high. For survival time, the PubChem record calls one and a half times the control and up active, and a quarter to a half above the control has no call in these data; cut-offs in other NCI protocols can differ.

Test system: P388 leukemia ip, CD2F1 mice, survival T/C
Assay: NCI In Vivo Anticancer Drug Screen. Data for tumor model P388 Leukemia (intraperitoneal) in CD2F1 (CDF1) mice
Conditions: T/C endpoint: median survival time, higher T/C = longer survival
[1] = dose: 120.0 mg/kg/injection, schedule: Q01DX005 (ip), vehicle: saline with Tween-80
[2] = dose: 240.0 mg/kg/injection, schedule: Q01DX005 (ip), vehicle: saline with Tween-80
[3] = dose: 50.0 mg/kg/injection, schedule: Q01DX005 (ip), vehicle: Klucel (hydroxypropylcellulose) (HPC)
[4] = dose: 200.0 mg/kg/injection, schedule: Q01DX005 (ip), vehicle: Klucel (hydroxypropylcellulose) (HPC)
[5] = dose: 200.0 mg/kg/injection, schedule: Q01DX009 (ip), vehicle: saline

Q: `CCCCCNC(=O)c1csc(-c2csc(CCNC(C)=O)n2)n1` was tested. Which survivor count (dose: 200.0 mg/kg/injection, schedule: Q01DX009 (ip), vehicle: distilled water + Tween-80) did it give?
A: 1 of 6

Q: What does the source list for `CC(=O)OCC1OC(Sc2ccc([N+](=O)[O-])cc2)C(OC(C)=O)C(OC(C)=O)C1OC(C)=O` (configuration not stated)?
A: survivor count (dose: 60.0 mg/kg/injection, schedule: Q01DX005 (ip), vehicle: saline with Tween-80): 6 of 6; survivor count [1]: 6 of 6; survivor count [2]: 6 of 6

Q: With `CC(C)(C)N=C(CCN1CCN(CCC(=NC(C)(C)C)Nc2ccc([N+](=O)[O-])cc2)CC1)Nc1ccc([N+](=O)[O-])cc1` as the compound, how does the survivor count (dose: 100.0 mg/kg/injection, schedule: Q01DX009 (ip), vehicle: Klucel (hydroxypropylcellulose) (HPC)) read?
A: 6 of 6

Q: How did the survivor count (dose: 25.0 mg/kg/injection, schedule: Q01DX005 (ip), vehicle: Klucel (hydroxypropylcellulose) (HPC)) turn out when `CN(C)c1ccc(C(=C2C=CC(=Nc3ccccc3)c3ccccc32)c2ccc(N(C)C)cc2)cc1` was run?
A: 4 of 6

Q: What about the survivor count [3] of the same compound?
A: 0 of 5

Q: And the survivor count (dose: 100.0 mg/kg/injection, schedule: Q01DX005 (ip), vehicle: Klucel (hydroxypropylcellulose) (HPC))?
A: 0 of 5

Q: What about the survivor count [4] of the same compound?
A: 0 of 5

Q: `CC(=O)Oc1cccnc1[N+](=O)[O-]` was tested. Which T/C [5] did it give?
A: 130 % of control

Q: And the survivor count (dose: 400.0 mg/kg/injection, schedule: Q01DX009 (ip), vehicle: saline)?
A: 2 of 6 and 5 of 6

Q: Which results are given for `NC(CCl)=NCc1ccccc1`?
A: survivor count (dose: 60.0 mg/kg/injection, schedule: Q01DX005 (ip), vehicle: saline): 5 of 6; survivor count (dose: 120.0 mg/kg/injection, schedule: Q01DX005 (ip), vehicle: saline): 0 of 6; survivor count (dose: 240.0 mg/kg/injection, schedule: Q01DX005 (ip), vehicle: saline): 0 of 6

Q: How did the survivor count [4] turn out when `O=c1nc2[nH]c3c4cccc5cccc(c3nc2c(=O)[nH]1)c54` was run?
A: 5 of 5

Q: Which results are given for `Cc1c(O)c2ccccc2c2c1sc(NCCO)[n+]2C`?
A: survivor count [1]: 3 of 6; survivor count [2]: 0 of 6

Q: With `COC(=O)CCC(=O)C(C#N)c1ccc(Cl)c(Cl)c1` (configuration not stated) as the compound, how does the survivor count [2] read?
A: 5 of 6

Q: Which survivor count (dose: 200.0 mg/kg/injection, schedule: Q01DX005 (ip), vehicle: saline with Tween-80) does the source give for `O=C1NC(=O)C2C3OC(C12)C1C2C(=O)NC(=O)C2C31` (configuration not stated) here?
A: 4 of 6

Q: Which survivor count (dose: 50.0 mg/kg/injection, schedule: Q01DX009 (ip), vehicle: saline) does the source give for `CCCCCCCCCCCCCCCCCCOP(=O)([O-])OCC[N+](C)(C)C` here?
A: 5 of 6 and 6 of 6

Q: And the survivor count (dose: 100.0 mg/kg/injection, schedule: Q01DX009 (ip), vehicle: saline)?
A: 0 of 6

Q: What about the survivor count [5] of the same compound?
A: 0 of 6

Q: For `CCOC(=O)CC(O)(c1ccc2c(c1)OCO2)c1cc(OC)c(OC)c(OC)c1` (configuration not stated), which survivor count [3] is on record?
A: 6 of 6

Q: With `COCCOC1=C(N2CC2)C(=O)C(OCCOC)=C(N2CC2)C1=O` as the compound, how does the T/C (dose: 5.0 mg/kg/injection, schedule: Q04DX003 (ip), vehicle: saline) read?
A: 131 % of control

Q: What about the survivor count (dose: 7.5 mg/kg/injection, schedule: Q01DX009 (ip), vehicle: saline) of the same compound?
A: 5 of 6

Q: What about the T/C (dose: 7.5 mg/kg/injection, schedule: Q04DX003 (ip), vehicle: saline) of the same compound?
A: 127 % of control

Q: `COc1cc(/C=N/N2CN(C(C)C(=O)O)B(NCCC(C)C)N=C2N)cc(OC)c1` (configuration not stated) was tested. Which survivor count [2] did it give?
A: 0 of 6

Q: `CCn1cc(C(=O)O)c(=O)c2ccc(C)nc21` (tested in a mixture with another compound) was tested. Which survivor count (dose: 400.0 mg/kg/injection, schedule: Q04DX002 (ip), vehicle: saline with Tween-80) did it give?
A: 1 of 6

Q: How did the survivor count (dose: 50.0 mg/kg/injection, schedule: Q01DX001 (ip), vehicle: Klucel (hydroxypropylcellulose) (HPC)) turn out when `Cc1cc(=O)n2c3c(c4c(cc13)c(CBr)cc(=O)n4C)OC2` was run?
A: 5 of 6

Q: What about the survivor count (dose: 200.0 mg/kg/injection, schedule: Q01DX001 (ip), vehicle: Klucel (hydroxypropylcellulose) (HPC)) of the same compound?
A: 0 of 6

Q: What about the survivor count (dose: 400.0 mg/kg/injection, schedule: Q01DX001 (ip), vehicle: Klucel (hydroxypropylcellulose) (HPC)) of the same compound?
A: 0 of 6

Q: For `O=C(Nc1ccc(N=Nc2ccc(S(=O)(=O)O)cc2)cc1)c1ccc(N=Nc2cc(S(=O)(=O)O)c3ccccc3c2O)cc1`, which survivor count (dose: 200.0 mg/kg/injection, schedule: Q01DX005 (ip), vehicle: saline) is on record?
A: 3 of 6
